In PubChem BioAssay AID1345085 (National Center for Advancing Translational Sciences (NCATS), 2018):
The shares of active, inactive and inconclusive entries below differ from those in the screen. Potencies of inconclusive entries are doubtful fits and often do not repeat. Activity calls are given as the source filed them. The call rests on the fitted dose curve; in most records, active means well fitted cell-killing curve with a large enough effect; inconclusive means small, poorly fitted or top-dose-only effect, or effect the other way; inactive means no such curve, though single readings can be large or run the other way.
Further: nearly all actives have a fitted effect of over 55% in size.
On the % scale 0 is the no-effect control and ±100 the full control effect; potency means the concentration at half of the fitted maximal effect.

What follows are compounds tested on JEG-3 (assay: Confirmatory qHTS for gynecologic anti-cancer compounds from libraries of approved drugs and bioactive compounds). Details: gynecologic cancer cell panel viability, ATPlite luminescence, 48 h; series mostly up to 57.6 µM; activity change, negative = viability loss: at the top concentration.
How it was run: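 Cells (1,000/well) plated 16 h, then exposed 48 h at 37 °C to 11 concentrations (1:3) from 57.5 uM to 0.977 nM. Viability by ATPlite luminescence after 15 min; IC50 derived, with HEK 293T used for selectivity index.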
COc1cc(N2CCC(N3CCN(C)CC3)CC2)ccc1Nc1ncnc(Nc2ccccc2S(=O)(=O)C(C)C)n1 was tested, and the Potency was inconclusive: 21.7 µM [cytotoxic, partial curve].
With CN[C@@H](C)C(=O)N[C@H]1CN(C(=O)CC(C)C)CC[C@H]2CC[C@@H](C(=O)NC(c3ccccc3)c3ccccc3)N2C1=O the “activity change, negative = viability loss” value was inactive: 14.6%.
COC(C)(C)CCn1nc(Nc2c(C)cccc2C)c2cnc(Nc3ccc(OCCN4CCCC4)c(F)c3)nc21 was tested, and the Potency was inconclusive: 2.73 µM [rising, full curve].
For CCOC(=O)C1=C(C)NC2=C(C(=O)CC(C)(C)C2)C1c1ccc(-c2ccccc2)cc1 (stereo not given), the Potency was inconclusive: 34.3 µM [cytotoxic, single point].
O=C(O)C1(Cc2cccc(Nc3nccs3)n2)CCC(Oc2cccc(Cl)c2F)CC1 (stereo not given) was tested, and the “activity change, negative = viability loss” value was inactive: -16.2%.
CN(C)c1ccc2nc3ccc(=[N+](C)C)cc-3sc2c1 was tested, and the Potency was inconclusive: 13.7 µM [cytotoxic, full curve].
CNCc1ccc(-c2[nH]c3cc(F)cc4c3c2CCNC4=O)cc1 was tested, and the Potency was inconclusive: 0.217 µM [rising, partial curve, poor fit].
With N#CC1(c2cccc(C(=O)Nc3cc(Oc4ccc5nc(NC(=O)C6CC6)sc5n4)ccc3F)c2Cl)CC1 the Potency was inconclusive: 15.3 µM [cytotoxic, partial curve].
COc1ccc(-c2cc3nccn3c(Nc3ncccc3C(N)=O)n2)cc1OC was tested, and the Potency was active: 12.2 µM.
COc1c(C)c2c(c(O)c1C/C=C(\C)CCC(=O)OCCN1CCOCC1)C(=O)OC2 was tested, and the Potency was inconclusive: 0.968 µM [cytotoxic, full curve].
